Data from publication PMC9928087, “Plasmids manipulate bacterial behaviour through translational regulatory crosstalk”.
Substitutions are numbered along the chain they refer to. Construct, isoform or probe ends are uncertain for at least one entry. For some of these results: Weaker means in comparison with the reference protein, sequence or condition of that experiment. For some of these results: At least one verdict was read from the data and is not stated in words by the source. For some of these results: Tags and fusion partners may be left off the protein sequences shown. For some of these results: The direction of at least one scale is not stated here.

Legend:
Assay in all cases: SPR
[1] = system: T1, RsmQ (Pseudomonas fluorescens SBW25 plasmid pQBR103); details: 100 nM protein; SPR (ReDCaT SA chip, Biacore 8K): 10 mM HEPES, 150 mM NaCl, 3 mM EDTA, 0.05% Tween 20, pH 7.4, 20 C; RsmQ 100 and 1000 nM (Fig 4: 100-1000 nM); recombinant protein; protein details: C-terminal TEV site + 6xHis; folded or branched DNA
T1 sequence (looked up, limits assumed): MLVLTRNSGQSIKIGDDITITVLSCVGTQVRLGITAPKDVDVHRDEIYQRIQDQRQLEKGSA

[2] = biological target: T2, RsmE (Pseudomonas fluorescens SBW25) (UniProt A0ACG8AC87); details: 100 nM protein, SPR (ReDCaT SA chip, Biacore 8K): 10 mM HEPES, 150 mM NaCl, 3 mM EDTA, 0.05% Tween 20, pH 7.4, 20 C, RsmQ 100 and 1000 nM (Fig 4: 100-1000 nM), recombinant protein, protein details: His tag (pET28a NdeI/XhoI), folded or branched DNA
T2 sequence (looked up, limits assumed): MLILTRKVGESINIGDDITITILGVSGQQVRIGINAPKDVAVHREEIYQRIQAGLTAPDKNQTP

[3] = system: T3, RsmQ R44A (Pseudomonas fluorescens SBW25 plasmid pQBR103); details: 100 nM protein; SPR (ReDCaT SA chip, Biacore 8K): 10 mM HEPES, 150 mM NaCl, 3 mM EDTA, 0.05% Tween 20, pH 7.4, 20 C; RsmQ 100 and 1000 nM (Fig 4: 100-1000 nM); recombinant protein; protein details: C-terminal TEV site + 6xHis; folded or branched DNA
T3 sequence (looked up, limits assumed): T1 sequence (looked up, limits assumed) with R44A

[4] = system: T4, RsmQ H43A (Pseudomonas fluorescens SBW25 plasmid pQBR103); details: 100 nM protein; SPR (ReDCaT SA chip, Biacore 8K): 10 mM HEPES, 150 mM NaCl, 3 mM EDTA, 0.05% Tween 20, pH 7.4, 20 C; RsmQ 100 and 1000 nM (Fig 4: 100-1000 nM); recombinant protein; protein details: C-terminal TEV site + 6xHis; folded or branched DNA
T4 sequence (looked up, limits assumed): T1 sequence (looked up, limits assumed) with H43A

Sequence	binding result [1]	binding result ([2]; not effective)	binding result [3]	binding result [4]	binding signal ([2]; mean of -5.99 and -6.16, counted as no binding) [%Rmax]
CCGCGCACGGAAGCGCAAACCCTACCCTACGTCCTCCTGC [Full_Bind_HP (ACGGA hairpin)]	binds	binds more weakly	binds more weakly	binds more weakly	–
CCGCGCAGGAAGCGCAAACCCTACCCTACGTCCTCCTGC [Bind_HP (GGA hairpin)]	–	–	binds more weakly	binds more weakly	-6.07
